According to publication PMC8149447, “Caerulomycin and collismycin antibiotics share a trans-acting flavoprotein-dependent assembly line for 2,2’-bipyridine formation” (Nature Communications, 2021):
No constants are given. Whether binding was seen depends on the method and setting. Where a sequence is shown, tags or fusion partners need not be part of it.

Assays:
[1] = substrate: PCP domain of the CaeA2 NRPS module (A. cyanogriseus (CAE-producing strain)); experiment: ITC; MicroCal-ITC200, 25°C; 60 μM CaeA2 construct in the cell, 400 μM flavoprotein in the syringe; 50 mM Tris-HCl pH 7.5, 100 mM NaCl, 0.1 mM TCEP, 5% glycerol; single binding site model; both purified
[2] = target: CaeA2ΔCt (A. cyanogriseus (CAE-producing strain)); experiment: as above

B1: MBP-fused CaeB1 variant (enzyme, UniProt M1F383 1-386)
chain: MTTGNGAAPPPLTRLSPEDEAWRAHVRAFAEEHIAPLSDRMDRDATLDPGLREKLFSAGLMAVEAPARYGGRGGSLFQVVLTIEEVARVDPGVAVGVDVHNALVVATLLRQGTGDQKRRRLPLLATRQVGAFALSEENAGSDAFAGTTTAVPTSDGGYRINGRKRWTSNAGQADVFLVFARTEGHGSSAFLVDRTAEGLSIDPRTEQMGVRAAATADVVLTDVRVRRQDCVGGPGGGEGVAIGALDIGRIGIAAQMVGLAQGALDEAVAYSRTREQFGQPIGSYQGVRFTLADIATEVAAARALLYDVTRTVAAGTDIAERLRLTAMAKYFASQVAERAASRALEVLGGNGFTREYPLERFYRDVKAGKIYEGTSNMLLRSIAGSL
binding [1]: no binding (tested: 400 μM in the syringe, 60 μM in the cell) | binding [2]: no binding (tested: 400 μM in the syringe, 60 μM in the cell)
